In all, about 33,000 sequences were measured (“E-score (-0.5 to 0.5)”: median about -0.0034, highest 2% from about 0.25 on). The list shows a part of the results.
The sequences below were run against T1, Yap3 (UniProt P38749) (assay: PBM E-score (8-mer binding enrichment) (E-score (-0.5 to 0.5)); higher = stronger / more preferred TF binding). Details: protein concentration: 100 nM; construct: GST-full length.
T1 sequence: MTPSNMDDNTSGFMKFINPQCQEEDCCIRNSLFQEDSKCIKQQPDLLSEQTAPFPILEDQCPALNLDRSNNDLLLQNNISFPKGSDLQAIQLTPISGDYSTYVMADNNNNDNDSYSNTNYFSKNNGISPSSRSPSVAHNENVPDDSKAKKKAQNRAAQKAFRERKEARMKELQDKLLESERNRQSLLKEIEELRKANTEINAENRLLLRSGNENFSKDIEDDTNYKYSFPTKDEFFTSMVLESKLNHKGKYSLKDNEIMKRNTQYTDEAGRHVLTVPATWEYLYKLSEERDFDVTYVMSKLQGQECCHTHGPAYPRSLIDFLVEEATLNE
Outline: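 E-scores (a modified Wilcoxon-Mann-Whitney statistic) were assigned by the Universal PBM Analysis Suite to every ungapped eight-base word pooled with its reverse complement. The input came from universal all-10-mer Agilent arrays made double-stranded by primer extension and probed with GST-tagged yeast transcription factors at about 100-200 nM. Fluorescent anti-GST detected bound protein, and masliner normalised the scans.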

Compared with CGGAGAGC, AGCTAAAT is higher in “PBM E-score” value: -0.117 for the first, -0.0986 for the second.

Going from ATATGGCC to GAAAACTA, the “PBM E-score” value rises from -0.12 to 0.16.

Going from CTCGATTA to CGGGCGTC, the “PBM E-score” value falls from 0.157 to -0.0573.

Compared with GCAAGGCA, AGAGTTGC is higher in “PBM E-score” value: -0.0753 for the first, -0.00022 for the second.

Going from ACGTGGCT to GGAAACAC, the “PBM E-score” value rises from -0.0617 to 0.138.

First: TGCACCAA
Second: AACGTTGA
The “PBM E-score” value of the first is lower: -0.0224 for the first, 0.118 for the second.

First: TATGTTCA
Second: AGGCTGCC
The “PBM E-score” value of the first is higher: 0.182 for the first, -0.24 for the second.

Going from CATACACC to AACACACG, the “PBM E-score” value falls from 0.0314 to -0.0404.

Compared with ATTGCCTC, CGATTGTA is higher in “PBM E-score” value: 0.156 for the first, 0.181 for the second.

Compared with CAAGGGTA, ACTGGTAA is higher in “PBM E-score” value: -0.118 for the first, 0.184 for the second.

Compared with GCCGCAGA, CATTTCAG is lower in “PBM E-score” value: 0.00175 for the first, -0.0214 for the second.

Going from GCTCGCCA to AAACGTGA, the “PBM E-score” value rises from -0.0002 to 0.145.

Going from AGCAGTTG to GCTCCCAA, the “PBM E-score” value falls from 0.0505 to -0.146.

First: GCAGATGC
Second: AATGCTTG
The “PBM E-score” value of the first is higher: -0.011 for the first, -0.0993 for the second.

Going from TTGCTAAA to GTCCGCCA, the “PBM E-score” value falls from 0.0114 to -0.134.

Going from ACATTGTA to AAGCCAAT, the “PBM E-score” value falls from 0.14 to 0.0764.

Compared with CACAGGCG, TAACAAAA is higher in “PBM E-score” value: -0.0961 for the first, 0.192 for the second.

Going from TCGTTGCA to GGCCACAC, the “PBM E-score” value falls from 0.0439 to -0.11.

Going from CACTCCAC to ACGCTTCG, the “PBM E-score” value falls from 0.0113 to -0.121.

Going from CGCCGGCC to ATCTAGGC, the “PBM E-score” value rises from -0.299 to -0.0921.

First: TCACGAAA
Second: AGACTCCT
The “PBM E-score” value of the first is higher: 0.142 for the first, -0.128 for the second.

Compared with AAGGCTCG, CCCTTCGG is higher in “PBM E-score” value: -0.256 for the first, -0.253 for the second.

Compared with ACCGCGGC, CAACCTGC is lower in “PBM E-score” value: 0.00754 for the first, -0.0299 for the second.

Compared with ACTACCGC, AGACTCCC is lower in “PBM E-score” value: -0.1 for the first, -0.355 for the second.

First: TGCCTCAA
Second: CCTATTAC
The “PBM E-score” value of the first is lower: -0.135 for the first, 0.176 for the second.

Compared with CGCGATCA, AGGTGGTA is lower in “PBM E-score” value: 0.0932 for the first, 0.0318 for the second.

Going from ACGACCCT to CACCTCTG, the “PBM E-score” value rises from -0.204 to -0.049.

Going from CTCTCCAC to AATCCAAC, the “PBM E-score” value rises from -0.146 to 0.0433.

Compared with ACGTTTCT, GCGAATGA is higher in “PBM E-score” value: 0.126 for the first, 0.149 for the second.

First: CGTCTTTC
Second: CGCTTATA
The “PBM E-score” value of the first is lower: -0.075 for the first, 0.146 for the second.

Going from ACTTTCTG to CGACGAAC, the “PBM E-score” value falls from 0.0731 to -0.0266.

Going from GCAGTAGA to AAGCAAAG, the “PBM E-score” value rises from -0.156 to 0.0645.

Going from AGATGCCC to CTGTGTCA, the “PBM E-score” value rises from 0.00381 to 0.0331.

Going from CGACAGAA to GAGTCTAA, the “PBM E-score” value falls from 0.172 to 0.00387.

Compared with ACAAAGGG, CGGCTACG is lower in “PBM E-score” value: -0.102 for the first, -0.169 for the second.

First: GCTTTCAA
Second: CGTGCCAC
The “PBM E-score” value of the first is higher: 0.0571 for the first, -0.0402 for the second.

Compared with CATCCGAG, CGTGTTAA is higher in “PBM E-score” value: 0.0382 for the first, 0.127 for the second.

Going from GGCACACA to AGGCGCGC, the “PBM E-score” value rises from -0.131 to 0.0964.

First: CTCCTGCA
Second: ATACTGTC
The “PBM E-score” value of the first is lower: -0.133 for the first, 0.0858 for the second.

First: AGAAGTCA
Second: AGAGAACG
The “PBM E-score” value of the first is higher: 0.0764 for the first, 0.0243 for the second.

First: ATGTTTAA
Second: ATCACAAA
The “PBM E-score” value of the first is lower: -0.0034 for the first, 0.158 for the second.

First: GCCAGGGA
Second: AACATCGA
The “PBM E-score” value of the first is lower: -0.141 for the first, 0.229 for the second.

Going from CACAGCCG to CTCAGAAC, the “PBM E-score” value rises from -0.00488 to 0.114.

First: AGTCCTTA
Second: CCGTTAAA
The “PBM E-score” value of the first is lower: 0.0117 for the first, 0.139 for the second.

First: GGAGCTCA
Second: ATTGCTAG
The “PBM E-score” value of the first is lower: -0.256 for the first, -0.107 for the second.

Compared with ACAGGCTC, AGCGTGGA is higher in “PBM E-score” value: -0.19 for the first, -0.0213 for the second.

Compared with CGGTTCAA, GGGGTAAC is higher in “PBM E-score” value: -0.139 for the first, -0.0441 for the second.

First: AATAGTAC
Second: CGATGAGC
The “PBM E-score” value of the first is higher: 0.0612 for the first, -0.0563 for the second.

Going from ATCGGGCG to ATGCGCAT, the “PBM E-score” value rises from -0.21 to 0.315.

Going from GCGTGAAC to CTATGAAG, the “PBM E-score” value rises from -0.192 to 0.0547.

Going from AAGGTGGC to CGTTTGAA, the “PBM E-score” value rises from -0.0793 to 0.0604.

Compared with CGTACGAG, GGTGCTTA is higher in “PBM E-score” value: -0.00494 for the first, 0.0052 for the second.

First: ACTCTATC
Second: CAAATCGA
The “PBM E-score” value of the first is higher: 0.0743 for the first, 0.0115 for the second.

First: ATACGTTC
Second: ACAGTACG
The “PBM E-score” value of the first is lower: 0.0399 for the first, 0.0519 for the second.

Compared with GATACGAA, CCGCAATA is higher in “PBM E-score” value: 0.0436 for the first, 0.245 for the second.

Compared with CAACAAAG, GACGCCGC is lower in “PBM E-score” value: 0.146 for the first, -0.176 for the second.

Compared with ACCCGGCA, AAATAATT is higher in “PBM E-score” value: -0.192 for the first, 0.287 for the second.

First: ATTTTGCG
Second: CCGTCGAG
The “PBM E-score” value of the first is higher: 0.155 for the first, 0.0879 for the second.

Going from GCGCCCCC to AAGGGTTA, the “PBM E-score” value rises from -0.357 to 0.013.

First: AGTAGGGA
Second: ATCTCCTC
The “PBM E-score” value of the first is lower: -0.0677 for the first, -0.0278 for the second.

Going from CTACGCTC to AGTAAAAA, the “PBM E-score” value rises from -0.122 to 0.208.

Going from GCTCTGTA to AGCCTCAC, the “PBM E-score” value falls from -0.055 to -0.0914.

Compared with CCGAATGA, CGGCGCAC is lower in “PBM E-score” value: 0.0795 for the first, 0.0439 for the second.

Going from AATGAACC to ACCACCGT, the “PBM E-score” value falls from 0.0718 to -0.246.

Going from AATATTCC to ACGGGGGG, the “PBM E-score” value falls from 0.281 to -0.426.

Going from AATATGCT to ACGAATCA, the “PBM E-score” value falls from 0.187 to 0.112.

Compared with CGGCCATC, CAATCCTC is higher in “PBM E-score” value: -0.203 for the first, -0.105 for the second.

Going from TAATGTGA to ATGGAGCC, the “PBM E-score” value falls from 0.241 to -0.122.

Going from AGTGGGGG to AGAAGTTG, the “PBM E-score” value rises from -0.353 to -0.0735.

Compared with CCAGCTTA, AATATAAG is higher in “PBM E-score” value: -0.0581 for the first, 0.353 for the second.

Going from GGCAGAGA to CACCGGCG, the “PBM E-score” value falls from -0.00962 to -0.0582.

Going from AATACTGT to AACCTGAT, the “PBM E-score” value falls from 0.209 to 0.0859.

First: AACTGCAT
Second: TGACGCAA
The “PBM E-score” value of the first is higher: 0.18 for the first, 0.0236 for the second.

First: AGATATTG
Second: AACTCCTA
The “PBM E-score” value of the first is higher: 0.174 for the first, -0.00383 for the second.

First: CCGTTTGC
Second: GAGGACTC
The “PBM E-score” value of the first is higher: 0.0816 for the first, -0.311 for the second.

First: CCCCGGGC
Second: CTGTGGAC
The “PBM E-score” value of the first is lower: -0.413 for the first, 0.021 for the second.

First: CAAGGCAC
Second: GTAGTTCA
The “PBM E-score” value of the first is lower: -0.172 for the first, 0.0513 for the second.

Going from AAGCACTG to TATAAGCA, the “PBM E-score” value rises from 0.174 to 0.181.

First: GTACCTGA
Second: ACTAAAGA
The “PBM E-score” value of the first is higher: -0.0323 for the first, -0.105 for the second.

Compared with CAGTTTTA, ACCCTAGA is lower in “PBM E-score” value: 0.112 for the first, 0.0326 for the second.

Compared with CTACCAAC, CGTGAGGA is lower in “PBM E-score” value: 0.0332 for the first, -0.0432 for the second.

Compared with ACTCAACA, GGACCGCA is lower in “PBM E-score” value: 0.183 for the first, -0.228 for the second.

First: AGACGCAG
Second: CTTACCGC
The “PBM E-score” value of the first is higher: -0.0583 for the first, -0.12 for the second.

First: GCCAATGA
Second: GACGCTGC
The “PBM E-score” value of the first is lower: -0.177 for the first, -0.0366 for the second.

Going from AGTTACCC to ATCCGGTA, the “PBM E-score” value rises from 0.00326 to 0.033.

First: AGAATTTC
Second: ATGTCCAG
The “PBM E-score” value of the first is higher: -0.00706 for the first, -0.0592 for the second.

Source: the supplement of paper PMC3334620
